Test results: publication PMC9508819, “Rbp95 binds to 25S rRNA helix H95 and cooperates with the Npa1 complex during early pre-60S particle maturation”
These are yes or no findings as the source states them, for the method shown. In cells and extracts the contact can be indirect. These calls come from enrichment with a bait or labelling near it, and not all partners need be listed.

Amino acid sequences for entries named in this document (tags omitted).
UniProt Q6Q547: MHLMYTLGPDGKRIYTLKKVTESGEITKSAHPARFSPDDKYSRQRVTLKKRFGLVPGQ
UniProt P40007: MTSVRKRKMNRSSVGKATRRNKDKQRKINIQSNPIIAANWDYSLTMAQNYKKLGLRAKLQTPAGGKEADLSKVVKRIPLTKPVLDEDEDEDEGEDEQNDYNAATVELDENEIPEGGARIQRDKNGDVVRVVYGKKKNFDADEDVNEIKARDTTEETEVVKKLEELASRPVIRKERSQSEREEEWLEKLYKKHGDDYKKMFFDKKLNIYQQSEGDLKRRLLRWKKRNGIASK
UniProt P32495: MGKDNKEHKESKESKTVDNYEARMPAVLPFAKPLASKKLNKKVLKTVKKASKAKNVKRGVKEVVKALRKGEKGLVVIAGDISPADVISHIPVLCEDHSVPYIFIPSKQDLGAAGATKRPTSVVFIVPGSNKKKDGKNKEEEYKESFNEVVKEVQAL
UniProt P14126: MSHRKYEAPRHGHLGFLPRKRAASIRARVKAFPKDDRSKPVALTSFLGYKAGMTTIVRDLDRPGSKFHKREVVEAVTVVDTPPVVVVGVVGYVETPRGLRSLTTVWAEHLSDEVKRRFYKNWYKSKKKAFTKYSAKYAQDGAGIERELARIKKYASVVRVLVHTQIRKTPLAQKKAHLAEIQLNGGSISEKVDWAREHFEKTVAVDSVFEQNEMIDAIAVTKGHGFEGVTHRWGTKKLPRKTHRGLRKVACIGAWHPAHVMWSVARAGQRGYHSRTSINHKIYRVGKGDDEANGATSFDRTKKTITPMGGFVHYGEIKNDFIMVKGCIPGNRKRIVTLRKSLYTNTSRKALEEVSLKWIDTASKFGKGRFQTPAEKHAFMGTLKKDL

T1: Noc2-TAP (S. cerevisiae) (UniProt P39744)
T1 sequence: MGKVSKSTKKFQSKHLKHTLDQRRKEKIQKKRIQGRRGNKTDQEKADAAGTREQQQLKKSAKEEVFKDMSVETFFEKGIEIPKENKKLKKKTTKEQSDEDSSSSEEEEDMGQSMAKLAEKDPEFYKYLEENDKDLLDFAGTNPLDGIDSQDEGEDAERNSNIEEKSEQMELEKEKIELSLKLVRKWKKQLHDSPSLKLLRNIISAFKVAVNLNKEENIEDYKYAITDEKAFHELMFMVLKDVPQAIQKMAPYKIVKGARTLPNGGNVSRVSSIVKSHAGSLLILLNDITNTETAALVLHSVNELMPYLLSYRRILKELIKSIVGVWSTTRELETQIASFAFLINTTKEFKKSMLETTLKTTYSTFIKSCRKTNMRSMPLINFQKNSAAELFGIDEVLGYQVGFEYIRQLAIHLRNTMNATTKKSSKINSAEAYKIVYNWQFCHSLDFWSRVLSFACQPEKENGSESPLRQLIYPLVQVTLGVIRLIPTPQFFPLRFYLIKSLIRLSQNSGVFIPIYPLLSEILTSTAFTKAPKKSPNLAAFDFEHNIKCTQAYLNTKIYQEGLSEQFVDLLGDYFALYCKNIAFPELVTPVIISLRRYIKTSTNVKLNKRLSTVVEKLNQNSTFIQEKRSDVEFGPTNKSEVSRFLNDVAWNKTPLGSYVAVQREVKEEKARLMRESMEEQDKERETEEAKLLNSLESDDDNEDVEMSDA

T2: Rbp95-TAP (S. cerevisiae) (UniProt P25617)
T2 sequence: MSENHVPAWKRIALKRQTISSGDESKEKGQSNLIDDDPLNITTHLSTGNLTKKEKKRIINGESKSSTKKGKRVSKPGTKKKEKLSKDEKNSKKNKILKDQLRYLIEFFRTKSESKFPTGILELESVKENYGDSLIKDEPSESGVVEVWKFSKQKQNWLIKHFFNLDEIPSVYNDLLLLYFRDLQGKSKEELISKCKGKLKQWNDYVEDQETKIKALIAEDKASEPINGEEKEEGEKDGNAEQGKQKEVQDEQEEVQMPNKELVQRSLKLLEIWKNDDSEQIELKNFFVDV

T3: Rbp95-TurboID (S. cerevisiae) (UniProt P25617)
T3 sequence: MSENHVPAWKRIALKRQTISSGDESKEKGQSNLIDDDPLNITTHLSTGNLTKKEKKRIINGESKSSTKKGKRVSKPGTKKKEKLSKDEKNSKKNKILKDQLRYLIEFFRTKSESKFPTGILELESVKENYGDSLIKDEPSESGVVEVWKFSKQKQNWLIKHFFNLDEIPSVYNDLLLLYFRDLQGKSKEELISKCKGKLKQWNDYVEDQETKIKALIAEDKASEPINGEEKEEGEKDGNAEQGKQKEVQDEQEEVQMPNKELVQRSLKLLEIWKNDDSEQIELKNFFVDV


What was measured:
[1] = target: T1, Noc2-TAP (S. cerevisiae); experiment: affinity purification with mass spectrometry; tandem-affinity purification from yeast lysate, elution from Calmodulin Sepharose with 0.8% ammonium hydroxide; label-free semi-quantitative LC-MS/MS (LFQ, MaxQuant); for Figure 8A, B from wild-type and Δrbp95 strains
[2] = target: T2, Rbp95-TAP (S. cerevisiae); experiment: as above
[3] = target: T3, Rbp95-TurboID (S. cerevisiae); experiment: proximity labelling; TurboID: C-terminally TurboID-tagged bait from the CUP1 promoter in yeast, 500 uM copper sulfate and biotin for 1 h; biotinylated proteins purified on streptavidin agarose, LC-MS/MS; enrichment against NLS-GFP-TurboID control

| Molecule | binding [1] | also measured |
| --- | --- | --- |
| Nop10 (from UniProt Q6Q547 1-58) | binds | – |
| Nop16 (from UniProt P40007 1-231) | binds | – |
| Nhp2 (from UniProt P32495 1-156) | binds | – |
| Rpl3 (from UniProt P14126 1-387) | binds | – |
| Dbp6 (enzyme, UniProt P53734 1-629) MFASRFDPSQLTAPAASAPEGIVGTTPPAIVPLKRQATESDNEEYGSHQDSDESSNSSSEEDEDRMQVDYGASEEDSSEVEEEESKPSTHSTVLSRFKQTVSLQERLGASDIAESKEDEGIEDEAASTHQLKQIPQPEFVKNPMNLNTNSLQFKSTGWLNTEKIYYDNSLIKPFSDYANELEAKLLQNICKNFSTNTFPIQSIILDSILPVLNFTLNVSKRNFTRRIGDILVNAATGSGKTLAYSIPIVQTLFKRQINRLRCIIIVPTKLLINQVYTTLTKLTQGTSLIVSIAKLENSLKDEHKKLSNLEPDILITTPGRLVDHLNMKSINLKNLKFLIIDEADRLLNQSFQGWCPKLMSHLKTDKLDTLPGNVIKMIFSATLTTNTEKLNGLNLYKPKLFLKQTDKLYQLPNKLNEFNINIPTAKSVYKPLILLYSICQFMAHSPIAAKILIFVKSNESSIRLSKLLQLICESRSQSSVLKNLQNLAVSINSVNSNNSKAENKKIVANFSHHSESAGITILITTDIMSRGIDINDITQVINYDPPMSSQQYVHRVGRTARANELGSAYNLLVGRGERTFFDDLNKDLDRDGKSVQPLELDFTLLESDSELYTSSLESLKNYHNNTAQA | – | binding [2]: binds |
| Mak5 (enzyme, UniProt P38112 1-773) MGKKRAPQKGKTVTKPQEIIVDESKLNWKPVDIPDTLDDFGGFYGLEEIDGVDVKVVDGKVTFVTKKDSKVLKDSNKEKVGDDQESVENESGSDSESELLEFKNLDDIKEGELSAASYSSSDEDEQGNIESSKLTDPSEDVDEDVDEDVLKENVFNKDINIDDISPVNLPEWTNLAPLSMTILQSLQNLNFLRPTEIQKKSIPVIMQGVDVMGKASTGSGKTLAYGIPIVEKLISNFSQKNKKPISLIFTPTRELAHQVTDHLKKICEPVLAKSQYSILSLTGGLSIQKQQRLLKYDNSGQIVIATPGRFLELLEKDNTLIKRFSKVNTLILDEADRLLQDGHFDEFEKIIKHLLVERRKNRENSEGSSKIWQTLIFSATFSIDLFDKLSSSRQVKDRRFKNNEDELNAVIQHLMSKIHFNSKPVIIDTNPESKVSSQIKESLIECPPLERDLYCYYFLTMFPGTTLIFCNAIDSVKKLTVYLNNLGIPAFQIHSSMTQKNRLKSLERFKQQSAKQKTINHSNPDSVQLSTVLIASDVAARGLDIPGVQHVIHYHLPRSTDIYIHRSGRTARAGSEGVSAMICSPQESMGPLRKLRKTLATKNSVSTDLNSRSTNRKPIKWQNTVPLLPIETDILSQLRERSRLAGELADHEIASNSLRKDDNWLKKAADELGIDVDSDEDDISKSNSDTFLLKNKNKKMQKTINKDKVKAMRATLNELLSVPIRKDRRQKYLTGGLVNLADNLVKKRGHNSIIGHEKTNALETLKKKKKRNN | – | binding [2]: binds |
| Rrs1 (protein, UniProt Q08746 1-203) MSAEDYKNLPVTVEKPIPVVYDLGNLAAFDSNVLDKNDLDSSNARREEKIKSLTRDNVQLLINQLLSLPMKTTTESVGGTGGQSSVMTLLQLPDPTTDLPREKPLPKAKAMTKWEKFAAKKGIKPKERAGKMIYDEASGEWVPKWGYKGANKKLDDQWLVEVDDKVKGTDNELIDPRTLNRAERKRLVKKNEKQQRRNMKNAL | – | binding [3]: binds |
| Rok1 (enzyme, UniProt P45818 1-564) MDIFRVLTRGASVKKESGPKAKAADYSVINGNDENHKEDNNESQIVKELDFFRNKRIISKVEDDREKTTENDSPNKEEKSGNDDGLIKPVITNTVEASALRKSYKGNVSGIDIPLPIGSFEDLISRFSFDKRLLNNLIENGFTEPTPIQCECIPVALNNRDVLACGPTGSGKTLAFLIPLVQQIIDDKQTAGLKGLIISPTKELANQIFIECFKLSYKIFLEKKRPLQVALLSKSLGAKLKNKVVSDKKYDIIISTPLRLIDVVKNEALDLSKVKHLIFDEADKLFDKTFVEQSDDILSACREPSLRKAMFSATIPSNVEEIAQSIMMDPVRVIIGHKEAANTNIEQKLIFCGNEEGKLIAIRQLVQEGEFKPPIIIFLESITRAKALYHELMYDRINVDVIHAERTALQRDRIIERFKTGELWCLICTDVLARGIDFKGVNLVINYDVPGSSQAYVHRIGRTGRGGRSGKAITFYTKQDSVAIKPIINVMKQSGCEVSEWMDKMAKMTRKEKESIKNGKAHKERKQITTVPKMDKAKRRRQQEMIAASKRRKNEELSKKHFSK | – | binding [3]: binds |
| Bms1 (protein, UniProt Q08965 1-1183) MEQSNKQHRKAKEKNTAKKKLHTQGHNAKAFAVAAPGKMARTMQRSSDVNERKLHVPMVDRTPEDDPPPFIVAVVGPPGTGKTTLIRSLVRRMTKSTLNDIQGPITVVSGKHRRLTFLECPADDLNAMIDIAKIADLVLLLIDGNFGFEMETMEFLNIAQHHGMPRVLGVATHLDLFKSQSTLRASKKRLKHRFWTEVYQGAKLFYLSGVINGRYPDREILNLSRFISVMKFRPLKWRNEHPYMLADRFTDLTHPELIETQGLQIDRKVAIYGYLHGTPLPSAPGTRVHIAGVGDFSVAQIEKLPDPCPTPFYQQKLDDFEREKMKEEAKANGEITTASTTRRRKRLDDKDKLIYAPMSDVGGVLMDKDAVYIDIGKKNEEPSFVPGQERGEGEKLMTGLQSVEQSIAEKFDGVGLQLFSNGTELHEVADHEGMDVESGEESIEDDEGKSKGRTSLRKPRIYGKPVQEEDADIDNLPSDEEPYTNDDDVQDSEPRMVEIDFNNTGEQGAEKLALETDSEFEESEDEFSWERTAANKLKKTESKKRTWNIGKLIYMDNISPEECIRRWRGEDDDSKDESDIEEDVDDDFFRKKDGTVTKEGNKDHAVDLEKFVPYFDTFEKLAKKWKSVDAIKERFLGAGILGNDNKTKSDSNEGGEELYGDFEDLEDGNPSEQAEDNSDKESEDEDENEDTNGDDDNSFTNFDAEEKKDLTMEQEREMNAAKKEKLRAQFEIEEGENFKEDDENNEYDTWYELQKAKISKQLEINNIEYQEMTPEQRQRIEGFKAGSYVRIVFEKVPMEFVKNFNPKFPIVMGGLLPTEIKFGIVKARLRRHRWHKKILKTNDPLVLSLGWRRFQTLPIYTTTDSRTRTRMLKYTPEHTYCNAAFYGPLCSPNTPFCGVQIVANSDTGNGFRIAATGIVEEIDVNIEIVKKLKLVGFPYKIFKNTAFIKDMFSSAMEVARFEGAQIKTVSGIRGEIKRALSKPEGHYRAAFEDKILMSDIVILRSWYPVRVKKFYNPVTSLLLKEKTEWKGLRLTGQIRAAMNLETPSNPDSAYHKIERVERHFNGLKVPKAVQKELPFKSQIHQMKPQKKKTYMAKRAVVLGGDEKKARSFIQKVLTISKAKDSKRKEQKASQRKERLKKLAKMEEEKSQRDKEKKKEYFAQNGKRTTMGGDDESRPRKMRR | – | binding [3]: binds |
| Ssf2 (protein, UniProt Q12153 1-453) MAKRRQKKRTHAQITPEQERDIPKSMVIRVGQTSLANHSLNQLVKDFRQIMQPHTAVKLKERKSNKLKDFVVMCGPLGVTHLFMFTQSEKTGNVSLKIARTPQGPTVTFQVLDYSLGRDIKKFLKRPKSLNNDDVLNPPLLVLNGFSTSKRSDEDDQDVNVEKVIVSMFQNIFPPLNPARTSLNSIKRIFMINKDRETGEISMRHYFIDIREVEISRNLKRLYKAKNNLSKTVPNLHRKEDISSLILDHDLGAYTSESEIEDDAIVRVVDNQDVKAKHSQTSLSQKTPVKMTDNEEREKGIEEEDVEMEEPKPSENSQPTPRKKAIKLTELGPRLTLKLVKIEDGICSGKVLHHEFVQKSSEEIKALEKRHAAKMRLKEQRRKEQEENIAKKKAVKDAKKQRKLERRKARAEEQGEGQGKDGAMSDDGSSSSEDEHYSDVPEDLDSDLFSEVE | binds | – |
| Rrp15 (protein, UniProt Q06511 1-250) MGSKHRVDTKDKKRTRKNAEFGREKRNSGNQELSNEPEKDTIMEGDEAEEDEQNSSSDESSKIIDNEQSDAEEDDDEEEEDDDFPRKKKSKNSKHDDGSTGFSAAVNAILSSHLKAYDRKDPIMARNKKVLKQSESEKLEYKAKKALLAEKKKLLGKARKTDIIPIASGEDRSENIRKVLEKETALRKIAQKGAVKLFNAILATQVKTEKEVSENLSEIKNKEEKKELITEVSKEKFLDLVKAAAGSDNE | binds | – |
| Rrp7 (protein, UniProt P25368 1-297) MGIEDISAMKNGFIVVPFKLPDHKALPKSQEASLHFMFAKRHQSSNSNESDCLFLVNLPLLSNIEHMKKFVGQLCGKYDTVSHVEELLYNDEFGLHEVDLSALTSDLMSSTDVNEKRYTPRNTALLKFVDAASINNCWNALKKYSNLHAKHPNELFEWTYTTPSFTTFVNFYKPLDIDYLKEDIHTHMAIFEQREAQAQEDVQSSIVDEDGFTLVVGKNTKSLNSIRKKILNKNPLSKHENKAKPISNIDKKAKKDFYRFQVRERKKQEINQLLSKFKEDQERIKVMKAKRKFNPYT | binds | – |
